Results as given in PubChem BioAssay AID2685 (National Center for Advancing Translational Sciences (NCATS), 2010).
This is one part of the list. These are further read-outs of the screen, such as a control signal, another cell line or another target. No call is given for them. Most of these compounds were active or inconclusive in the main read-out, so they are no random draw. Words in brackets tell the shape of the fitted curve; partial curves, single points and poor fits give uncertain potencies.

Experiment: qHTS Assay for Lipid Storage Modulators in Drosophila S3 Cells;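 on cell number change: cells counted by Cell Tracker Red CMTPX staining in the red channel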
Conditions: BODIPY lipid droplet fluorescence, 18-24 h; for cell number change: measured here: cell count max response, cells fed with added oleic acid
Summary of the method: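 Drosophila S3 cells got compounds at several concentrations plus oleic acid (400 uM solution). Laser-scanning cytometry with 488 nm excitation read lipid droplets at 500-530 nm and cells at 575-640 nm. Percent activity was relative to 20 uM Triacsin C.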

[1] = measured here: lipid fluorescence (Fed channel) AC50, cells fed with added oleic acid
[2] = measured here: cell number channel AC50, cells fed with added oleic acid

| Compound | cell number change | AC50 [1] | AC50 [2] |
| --- | --- | --- | --- |
| CC(=O)Nc1ccc(S(=O)(=O)NNC(=O)c2ccc3c(c2)OCO3)cc1 | -7.2% | 18.4 µM [rising, single point] | – |
| O=C(Cn1c(N2CCN(c3ccccc3)CC2)nc2ccccc21)c1ccccc1 | – | – | 0.517 µM [rising, single point] |
| CCSc1nsc(NC(=O)Nc2ccccc2F)n1 | -7.88% | – | – |
| COc1ccc(CCN2CC(C(=O)N(C)CCOc3ccccc3)CCC2=O)cc1 (configuration not stated) | 111% | – | 25.9 µM [rising, partial curve] |
| O=C(NC(=S)Nc1cccc2c(O)cccc12)c1cccc(Br)c1 | -47.9% | 20.6 µM [falling, single point] | 20.6 µM [falling, single point] |
| COc1c(/C=N/Nc2ccc([N+](=O)[O-])cc2[N+](=O)[O-])c(C)nn1-c1ccccc1 | -2.72% | 3.26 µM [falling, partial curve] | 3.26 µM [falling, partial curve] |
| CCOC(=O)c1c(NC(=O)CN(CC)CC)sc2c1CCN(C(=O)OCC)C2 | -21.7% | 0.366 µM [rising, partial curve, poor fit] | – |
| CCNC(=S)NNC(=O)c1cc(C)on1 | 22.7% | 9.2 µM [rising, partial curve, poor fit] | 6.51 µM [rising, single point] |
| c1ccc2c(c1)ccc1nnc(SCc3ccc4c(c3)OCO4)n12 | -32.1% | 29.1 µM [falling, single point] | 29.1 µM [falling, single point] |
| COCCSc1nnc(NC(=O)COc2ccc3c(c2)OCO3)s1 | 19.7% | – | – |
| N#CC1=C(N)NC(SCC(=O)c2ccc(Cl)cc2)=C(C#N)C12CCCC2 | 2.29% | – | 0.058 µM [rising, full curve, poor fit] |
| Cc1nnc(C)n1/N=C/c1ccc(C(C)C)cc1 | 20.8% | – | – |
| CCS(=O)(=O)c1ccc(O)c(NC(=O)COc2ccc(Cl)cc2)c1 | -5.2% | 0.517 µM [falling, full curve, poor fit] | – |
| CCc1ccc(NC(=O)N2CCc3ccccc3C2)cc1 | – | 0.58 µM [rising, single point] | – |
| Cc1nc2c(nnn2Cc2ccccc2)c(=O)n1-c1ccccc1 | 39.4% | 29.1 µM [rising, single point] | 0.0259 µM [rising, full curve, poor fit] |
| O=[N+]([O-])c1cc(C(F)(F)F)ccc1NCCNC(=S)Nc1ccc(Cl)cc1 | -36.1% | 29.1 µM [falling, single point] | – |
| COc1ccc([N+](=O)[O-])c(OC)c1C(=O)NC(=O)Nc1c(F)cc(F)cc1F | 1.06% | – | – |
| C[n+]1c(/C=C/c2ccc(O)cc2)ccc2ccccc21 | -25.2% | 16.4 µM [falling, single point] | – |
| O=C(NCCCCc1ccccc1)Nc1ccc(F)cc1F | 8.38% | – | – |
| COc1ccc(CCC(=O)NNC(=O)c2cc(Cl)ccc2OC)cc1OC | 18.3% | 0.13 µM [rising, full curve, poor fit] | – |
| NC(=O)CC(NC(=O)Cc1ccc(Br)cc1)c1ccc(N2CCC(N3CCCC3)CC2)c([N+](=O)[O-])c1 (configuration not stated) | 31.1% | 23.1 µM [rising, single point] | 16.4 µM [rising, partial curve, poor fit] |

By substructure, the entries above with an aryl methoxy group (four)

| Compound | cell number change | AC50 [1] | AC50 [2] |
| --- | --- | --- | --- |
| COc1ccc(CCN2CC(C(=O)N(C)CCOc3ccccc3)CCC2=O)cc1 (configuration not stated) | 111% | – | 25.9 µM [rising, partial curve] |
| COc1c(/C=N/Nc2ccc([N+](=O)[O-])cc2[N+](=O)[O-])c(C)nn1-c1ccccc1 | -2.72% | 3.26 µM [falling, partial curve] | 3.26 µM [falling, partial curve] |
| COc1ccc([N+](=O)[O-])c(OC)c1C(=O)NC(=O)Nc1c(F)cc(F)cc1F | 1.06% | – | – |
| COc1ccc(CCC(=O)NNC(=O)c2cc(Cl)ccc2OC)cc1OC | 18.3% | 0.13 µM [rising, full curve, poor fit] | – |

Next part.

| Compound | cell number change | AC50 [1] | AC50 [2] |
| --- | --- | --- | --- |
| Cc1cc(=O)oc2cc(NC(=O)Cc3ccccc3[N+](=O)[O-])ccc12 | 30.3% | – | 0.00517 µM [rising, full curve, poor fit] |
| c1ccc(OCCCc2nc(-c3ccncc3)no2)cc1 | -2.04% | – | – |
| O=C(CCS(=O)(=O)c1ccccc1)NC12CC3CC(CC(C3)C1)C2 | -52.6% | 6.51 µM [falling, full curve] | 13 µM [falling, partial curve] |
| CCn1c(=O)c(CCC(=O)NCC2CCCO2)c(C)c2c(C)nn(-c3ccc(C)cc3)c21 (configuration not stated) | -3.61% | 3.66 µM [falling, single point] | – |
| COc1ccc(N2C(=O)/C(=C\c3ccco3)N=C2SCC(N)=O)cc1Cl | 55.9% | – | – |
| O=Cc1cn(CC(O)CN2CCCCC2)c2ccccc12 (configuration not stated) | 12.5% | – | – |
| CCC(C)Nc1nc(-c2ccccn2)nc2ccccc12 (configuration not stated) | -17.9% | 18.4 µM [falling, single point] | – |
| CCOC(=O)c1c(NC(=S)NC(=O)c2ccc(Cn3cc(Cl)cn3)o2)sc2c1CCCCC2 | 22.5% | – | 0.82 µM [rising, full curve, poor fit] |
| O=C(Cn1ncc(N2CCCC2)c(Cl)c1=O)c1ccc(Cl)cc1 | 12.6% | – | – |
| CCN(CC)S(=O)(=O)c1ccc(OC)c(NC(=O)COc2ccc3c(C)cc(=O)oc3c2)c1 | 2.21% | 0.092 µM [rising, full curve, poor fit] | – |
| C=CCn1c(SCCCc2ccccc2)nc2c1c(=O)[nH]c(=O)n2C | 8.49% | 0.092 µM [rising, full curve] | – |
| O=S(=O)(NCc1ccc2c(c1)OCO2)c1ccccc1F | -17.3% | – | 0.092 µM [falling, full curve, poor fit] |
| Cc1ccc(NC(=O)C2CCCN2S(=O)(=O)c2ccc(F)cc2)c(C)c1 (configuration not stated) | – | – | 1.16 µM [rising, partial curve] |
| COc1cccc(C(=O)NCCS(=O)(=O)N2CCCCC2)c1 | – | 0.259 µM [rising, full curve, poor fit] | – |
| Nc1ccccc1-c1nnc(-c2ccccc2N)n1N | -20.4% | 0.794 µM [falling, single point] | – |
| CCN(C(=O)CCN1C(=O)/C(=C/c2ccccc2)SC1=S)C1CCS(=O)(=O)C1 (configuration not stated) | – | 13 µM [falling, partial curve] | – |
| CC(/C=N/NC(=O)c1nnn(-c2nonc2N)c1C)=C\c1ccccc1 | 17.2% | – | – |
| COC(=O)c1ccc(Sc2ccccc2NS(=O)(=O)c2ccc(OC)cc2)nc1 | 55.7% | 7.31 µM [rising, partial curve] | – |
| COC(=O)C1=C(C)N(Cc2ccco2)C(=O)/C1=C\c1ccc([N+](=O)[O-])cc1 | -5.5% | 7.31 µM [falling, partial curve, poor fit] | 4.61 µM [falling, partial curve, poor fit] |
| Cc1cccc(C(=O)N2CCN(S(=O)(=O)N3CCCCCC3)CC2)c1 | 2.86% | 29.1 µM [rising, single point] | – |
| COc1ccc(C2NCCc3c2[nH]c2ccccc32)cc1CN1CCc2cc(OC)c(OC)cc2C1C (configuration not stated) | 19.7% | 13 µM [rising, partial curve, poor fit] | – |

| Compound | cell number change | AC50 [1] | AC50 [2] |
| --- | --- | --- | --- |
| O=C(O)C1CCN(Cc2ccccn2)CC1 | -35.9% | 2.31 µM [rising, partial curve] | 20.6 µM [falling, single point] |
| COc1ccccc1C(=O)NCCC(=O)Nc1ccc(C)cn1 | – | 8.2 µM [falling, partial curve] | – |
| CCc1onc(C)c1C(=O)Nc1ccc2c(c1)OCO2 | 4.05% | 0.461 µM [falling, full curve, poor fit] | – |
| O=C1c2cccc3cccc(c23)C(=O)N1CCN1CCN(C(=S)Nc2ccc(F)cc2)CC1 | – | 2.06 µM [rising, partial curve] | 2.91 µM [rising, single point] |
| O=C(NCc1ccccn1)c1cc(-c2ccc(Cl)cc2)nc2ccccc12 | 0.853% | 2.06 µM [rising, full curve] | – |
| CNC(=O)CSc1nc2[nH]ncc2c(=O)[nH]1 | – | 0.291 µM [falling, partial curve, poor fit] | – |
| Cc1nnc(OC(C)C)c2nn(-c3ccccc3F)c(C)c12 | 44.4% | – | – |
| CCCCCCSc1ccc([C@H]2N[C@@](Cc3ccccc3)(C(=O)OC)[C@H]3C(=O)N(C)C(=O)[C@@H]23)cc1OC | 29.1% | 14.6 µM [rising, partial curve] | – |
| COc1cc(C=C(c2nc3ccccc3s2)c2nc3ccccc3s2)ccc1O | -94.1% | 25.9 µM [falling, single point] | 16.4 µM [falling, single point] |
| O=C1CCC/C(=N\NC(=O)c2ccc(COc3ccccc3-c3ccccc3)cc2)C1 | 4.88% | 0.13 µM [falling, full curve, poor fit] | – |
| Cn1nc(-c2ccccc2)c(C(=O)Nc2ccc(C(F)(F)F)cc2)c1Cl | 18.8% | 8.2 µM [rising, partial curve, poor fit] | – |
| CC(C)(C)c1nc(SCC(=O)NNC(=O)c2ccccc2)c2ccccc2n1 | 5.83% | 2.06 µM [falling, partial curve] | – |
| Cc1ccc(N(C)S(=O)(=O)c2cccc(C(=O)Nc3ccc(C)cn3)c2)cc1 | -12.8% | 29.1 µM [falling, single point] | – |
| CCC(=O)Oc1c(S(=O)(=O)c2ccc(C)cc2)c(C)nn1C(C)(C)C | -5.57% | – | – |
| Cn1nnc(NCc2cc(Br)ccc2OCc2cccs2)n1 | -2.97% | – | – |
| CN1CCN(c2nc(-c3ccccc3)nc(-c3ccccc3)c2C#N)CC1 | 5.54% | 4.61 µM [falling, partial curve] | – |
| O=C(CN1CCN(S(=O)(=O)c2ccc(F)cc2)CC1)Nc1cc(C(F)(F)F)ccc1Cl | -11.3% | – | – |
| CN(C)S(=O)(=O)c1cc(NC(=O)CN2CCNC(=O)C2)ccc1Cl | -5.34% | – | – |
| CC1(C)CC(NC(=O)Cc2ccc(Cl)cc2)CC(C)(C)N1 | 5.82% | – | – |
| Cc1c(C(=O)N2CCCCC2)c(S(=O)(=O)Nc2ccc(F)cc2F)c(C)n1C | -10.5% | – | – |
| Cc1cc(C(=O)CSc2nc(N)cc(=O)[nH]2)c(C)n1CCc1ccc(F)cc1 | -26.1% | 29.1 µM [falling, single point] | – |
